Source: PubChem BioAssay AID328 (DTP/NCI, 2004)
The list is a part of this screen's results and no random one: it gathers some chemical classes. Not every dose and run of a compound is shown. T/C gives the treated animals as a percentage of the vehicle group. For survival time, the PubChem record calls one and a half times the control and up active, and a quarter to a half above the control has no call in these data; cut-offs in other NCI protocols can differ. Some entries show no survivor count and are marked so; the dose need not have been tolerated. Schedules are NCI's codes, read here as Q, the interval in days (D) or hours (H), X, the number of doses. Some entries were tested several times; the results are listed from low to high.

System: BDF1 mice, P388 leukemia ip, median survival T/C
Assay: NCI In Vivo Anticancer Drug Screen. Data for tumor model P388 Leukemia (intraperitoneal) in B6D2F1 (BDF1) mice
Conditions: T/C endpoint: median survival time, higher T/C = longer survival
Procedure, shortened: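 In tumour-bearing mice, survival after compound treatment is set against the vehicle group and given as a quotient.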

**Q.** How did the T/C (dose: 0.04 mg/kg/injection, schedule: Q01DX009 (ip), vehicle: saline) turn out when CCC1(CC)NC(=O)N(CCN(CCCl)CCCl)C1=O was run?
**A.** 95 % of control [survivor count not shown]

**Q.** And the T/C (dose: 0.09 mg/kg/injection, schedule: Q01DX009 (ip), vehicle: saline)?
**A.** 105 % of control [survivor count not shown]

**Q.** And the T/C (dose: 0.19 mg/kg/injection, schedule: Q01DX009 (ip), vehicle: saline)?
**A.** 114 % of control [survivor count not shown]

**Q.** What about the T/C (dose: 0.39 mg/kg/injection, schedule: Q01DX009 (ip), vehicle: saline) of the same molecule?
**A.** 128 % of control [survivor count not shown]

**Q.** And the T/C (dose: 0.78 mg/kg/injection, schedule: Q01DX009 (ip), vehicle: saline)?
**A.** 140 % of control [survivor count not shown]

**Q.** And the T/C (dose: 1.5 mg/kg/injection, schedule: Q01DX009 (ip), vehicle: saline)?
**A.** 104 % of control [survivor count not shown]

**Q.** And the T/C (dose: 1.56 mg/kg/injection, schedule: Q01DX009 (ip), vehicle: saline)?
**A.** 166 % of control [survivor count not shown]

**Q.** What about the T/C (dose: 3.0 mg/kg/injection, schedule: Q01DX009 (ip), vehicle: saline) of the same molecule?
**A.** 103 % of control [survivor count not shown]

**Q.** What about the T/C (dose: 3.12 mg/kg/injection, schedule: Q01DX009 (ip), vehicle: saline) of the same molecule?
**A.** 210 % of control [survivor count not shown]

**Q.** What about the T/C (dose: 6.0 mg/kg/injection, schedule: Q01DX009 (ip), vehicle: saline) of the same molecule?
**A.** 107 % of control [survivor count not shown]

**Q.** And the T/C (dose: 6.25 mg/kg/injection, schedule: Q01DX009 (ip), vehicle: saline)?
**A.** 263 % of control [survivor count not shown]

**Q.** What about the T/C (dose: 12.0 mg/kg/injection, schedule: Q01DX009 (ip), vehicle: saline) of the same molecule?
**A.** 107 % of control [survivor count not shown]

**Q.** And the T/C (dose: 12.5 mg/kg/injection, schedule: Q01DX009 (ip), vehicle: saline)?
**A.** 131 % of control [survivor count not shown]

**Q.** How did the T/C (dose: 0.39 mg/kg/injection, schedule: Q01DX009 (ip), vehicle: saline with Tween-80) turn out when OCC#CCN(CCBr)CCBr was run?
**A.** 163 % of control [survivor count not shown]

**Q.** And the T/C (dose: 0.78 mg/kg/injection, schedule: Q01DX009 (ip), vehicle: saline with Tween-80)?
**A.** 199 % of control [survivor count not shown]

**Q.** What about the T/C (dose: 1.56 mg/kg/injection, schedule: Q01DX009 (ip), vehicle: saline with Tween-80) of the same molecule?
**A.** 192 [survivor count not shown] and 265 % of control [survivor count not shown]

**Q.** What about the T/C (dose: 3.13 mg/kg/injection, schedule: Q01DX009 (ip), vehicle: saline with Tween-80) of the same molecule?
**A.** 92 % of control [survivor count not shown]

**Q.** For O=C(O)Cc1c[nH]c2ccc(N(CCCl)CCCl)cc12, which T/C (dose: 0.44 mg/kg/injection, schedule: Q01DX009 (ip), vehicle: saline with Tween-80) is on record?
**A.** 163 % of control [survivor count not shown]

**Q.** And the T/C (dose: 0.66 mg/kg/injection, schedule: Q01DX009 (ip), vehicle: saline with Tween-80)?
**A.** 179 % of control [survivor count not shown]

**Q.** And the T/C (dose: 0.88 mg/kg/injection, schedule: Q04DX003 (ip), vehicle: saline with Tween-80)?
**A.** 112 % of control [survivor count not shown]

**Q.** What about the T/C (dose: 1.0 mg/kg/injection, schedule: Q01DX009 (ip), vehicle: saline with Tween-80) of the same molecule?
**A.** 208 % of control [survivor count not shown]

**Q.** What about the T/C (dose: 1.32 mg/kg/injection, schedule: Q01DX009 (ip), vehicle: saline with Tween-80) of the same molecule?
**A.** 168 % of control [survivor count not shown]

**Q.** And the T/C (dose: 1.32 mg/kg/injection, schedule: Q04DX003 (ip), vehicle: saline with Tween-80)?
**A.** 125 % of control [survivor count not shown]

**Q.** And the T/C (dose: 1.5 mg/kg/injection, schedule: Q01DX009 (ip), vehicle: saline with Tween-80)?
**A.** 245 % of control [survivor count not shown]

**Q.** And the T/C (dose: 2.0 mg/kg/injection, schedule: Q01DX009 (ip), vehicle: saline with Tween-80)?
**A.** 209 % of control [survivor count not shown]

**Q.** What about the T/C (dose: 2.0 mg/kg/injection, schedule: Q04DX003 (ip), vehicle: saline with Tween-80) of the same molecule?
**A.** 125 % of control [survivor count not shown]

**Q.** And the T/C (dose: 2.6 mg/kg/injection, schedule: Q04DX003 (ip), vehicle: saline with Tween-80)?
**A.** 204 % of control [survivor count not shown]

**Q.** What about the T/C (dose: 3.0 mg/kg/injection, schedule: Q01DX009 (ip), vehicle: saline with Tween-80) of the same molecule?
**A.** 250 % of control [survivor count not shown]

**Q.** What about the T/C (dose: 3.0 mg/kg/injection, schedule: Q04DX003 (ip), vehicle: saline with Tween-80) of the same molecule?
**A.** 150 % of control [survivor count not shown]

**Q.** And the T/C (dose: 4.0 mg/kg/injection, schedule: Q04DX003 (ip), vehicle: saline with Tween-80)?
**A.** 200 % of control [survivor count not shown]

**Q.** And the T/C (dose: 4.5 mg/kg/injection, schedule: Q01DX009 (ip), vehicle: saline with Tween-80)?
**A.** 240 % of control [survivor count not shown]

**Q.** What about the T/C (dose: 6.0 mg/kg/injection, schedule: Q04DX003 (ip), vehicle: saline with Tween-80) of the same molecule?
**A.** 254 % of control [survivor count not shown]

**Q.** And the T/C (dose: 6.25 mg/kg/injection, schedule: Q04DX003 (ip), vehicle: saline with Tween-80)?
**A.** 186 % of control [survivor count not shown]

**Q.** And the T/C (dose: 9.0 mg/kg/injection, schedule: Q04DX003 (ip), vehicle: saline with Tween-80)?
**A.** 86 % of control [survivor count not shown]

**Q.** What about the T/C (dose: 12.5 mg/kg/injection, schedule: Q04DX003 (ip), vehicle: saline with Tween-80) of the same molecule?
**A.** 118 % of control [survivor count not shown]

**Q.** How did the T/C (dose: 12.5 mg/kg/injection, schedule: Q01DX009 (ip), vehicle: saline with Tween-80) turn out when Cc1ccc(S(=O)(=O)CN(CCBr)CCBr)cc1 was run?
**A.** 108 [survivor count not shown] and 178 % of control [survivor count not shown]

**Q.** What about the T/C (dose: 25.0 mg/kg/injection, schedule: Q01DX009 (ip), vehicle: saline with Tween-80) of the same molecule?
**A.** 161 % of control [survivor count not shown]

**Q.** And the T/C (dose: 50.0 mg/kg/injection, schedule: Q01DX009 (ip), vehicle: saline with Tween-80)?
**A.** 205 [survivor count not shown] and 218 % of control [survivor count not shown]

**Q.** How did the T/C (dose: 1.25 mg/kg/injection, schedule: Q01DX010 (ip), vehicle: saline) turn out when ClCCN(CCCl)Cc1nc2ccccc2[nH]1 was run?
**A.** 160 [survivor count not shown] and 163 % of control [survivor count not shown]

**Q.** And the T/C (dose: 2.5 mg/kg/injection, schedule: Q01DX010 (ip), vehicle: saline)?
**A.** 175 [survivor count not shown] and 181 % of control [survivor count not shown]

**Q.** And the T/C (dose: 5.0 mg/kg/injection, schedule: Q01DX010 (ip), vehicle: saline)?
**A.** 215 [survivor count not shown] and 227 % of control [survivor count not shown]

**Q.** And the T/C (dose: 10.0 mg/kg/injection, schedule: Q01DX010 (ip), vehicle: saline)?
**A.** 140 % of control [survivor count not shown]

**Q.** What does the source list for O=C(O)c1ccc(CN(CCCl)CCCl)cc1?
**A.** T/C (dose: 0.78 mg/kg/injection, schedule: Q04DX003 (ip), vehicle: water): 113 % of control [survivor count not shown]; T/C (dose: 1.0 mg/kg/injection, schedule: Q01DX009 (ip), vehicle: water): 150 % of control [survivor count not shown]; T/C (dose: 1.56 mg/kg/injection, schedule: Q04DX003 (ip), vehicle: water): 120 % of control [survivor count not shown]; T/C (dose: 2.0 mg/kg/injection, schedule: Q01DX009 (ip), vehicle: water): 166 % of control [survivor count not shown]; T/C (dose: 3.12 mg/kg/injection, schedule: Q04DX003 (ip), vehicle: water): 173 % of control [survivor count not shown]; T/C (dose: 4.0 mg/kg/injection, schedule: Q01DX009 (ip), vehicle: water): 185 % of control [survivor count not shown]

**Q.** With Cc1cc(C)c2nc(CN(CCCl)CCCl)[nH]c2c1 as the molecule, how does the T/C (dose: 6.1 mg/kg/injection, schedule: Q04DX003 (ip), vehicle: Klucel (hydroxypropylcellulose) (HPC)) read?
**A.** 120 % of control [survivor count not shown]

**Q.** And the T/C (dose: 9.2 mg/kg/injection, schedule: Q04DX003 (ip), vehicle: Klucel (hydroxypropylcellulose) (HPC))?
**A.** 112 % of control [survivor count not shown]

**Q.** What about the T/C (dose: 14.0 mg/kg/injection, schedule: Q04DX003 (ip), vehicle: saline with Tween-80) of the same molecule?
**A.** 170 % of control [survivor count not shown]

**Q.** What about the T/C (dose: 21.0 mg/kg/injection, schedule: Q04DX003 (ip), vehicle: saline with Tween-80) of the same molecule?
**A.** 170 % of control [survivor count not shown]

**Q.** What about the T/C (dose: 33.0 mg/kg/injection, schedule: Q04DX003 (ip), vehicle: saline with Tween-80) of the same molecule?
**A.** 168 % of control [survivor count not shown]

**Q.** And the T/C (dose: 50.0 mg/kg/injection, schedule: Q04DX003 (ip), vehicle: saline with Tween-80)?
**A.** 204 % of control [survivor count not shown]
